5 targets from the supplement of paper PMC12819154, “High-throughput peptide-centric local stability assay extends protein–ligand identification to membrane proteins, tissues and bacteria” (Nature Structural & Molecular Biology, 2025) can be followed below.

By UniProt entry, the sequences of proteins in these tests, tags left out. Where a name states a change or a piece, a line headed by the entry shows the natural chain unless it says otherwise.
UniProt Q8BH95: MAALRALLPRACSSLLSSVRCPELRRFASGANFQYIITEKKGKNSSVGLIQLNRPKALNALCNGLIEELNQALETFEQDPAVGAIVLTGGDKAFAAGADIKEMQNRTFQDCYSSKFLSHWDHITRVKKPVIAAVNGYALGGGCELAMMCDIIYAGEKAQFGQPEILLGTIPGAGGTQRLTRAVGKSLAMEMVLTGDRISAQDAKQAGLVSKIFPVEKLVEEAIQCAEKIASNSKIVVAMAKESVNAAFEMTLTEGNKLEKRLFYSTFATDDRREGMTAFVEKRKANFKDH
UniProt Q8BGL3: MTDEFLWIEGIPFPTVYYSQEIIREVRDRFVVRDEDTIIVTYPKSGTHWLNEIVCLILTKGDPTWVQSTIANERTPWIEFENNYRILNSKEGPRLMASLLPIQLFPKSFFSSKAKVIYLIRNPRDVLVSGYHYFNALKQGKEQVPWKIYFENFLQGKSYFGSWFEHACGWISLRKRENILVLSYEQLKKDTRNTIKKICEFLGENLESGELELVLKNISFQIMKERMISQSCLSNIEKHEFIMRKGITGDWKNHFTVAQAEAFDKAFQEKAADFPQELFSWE
UniProt Q810A7: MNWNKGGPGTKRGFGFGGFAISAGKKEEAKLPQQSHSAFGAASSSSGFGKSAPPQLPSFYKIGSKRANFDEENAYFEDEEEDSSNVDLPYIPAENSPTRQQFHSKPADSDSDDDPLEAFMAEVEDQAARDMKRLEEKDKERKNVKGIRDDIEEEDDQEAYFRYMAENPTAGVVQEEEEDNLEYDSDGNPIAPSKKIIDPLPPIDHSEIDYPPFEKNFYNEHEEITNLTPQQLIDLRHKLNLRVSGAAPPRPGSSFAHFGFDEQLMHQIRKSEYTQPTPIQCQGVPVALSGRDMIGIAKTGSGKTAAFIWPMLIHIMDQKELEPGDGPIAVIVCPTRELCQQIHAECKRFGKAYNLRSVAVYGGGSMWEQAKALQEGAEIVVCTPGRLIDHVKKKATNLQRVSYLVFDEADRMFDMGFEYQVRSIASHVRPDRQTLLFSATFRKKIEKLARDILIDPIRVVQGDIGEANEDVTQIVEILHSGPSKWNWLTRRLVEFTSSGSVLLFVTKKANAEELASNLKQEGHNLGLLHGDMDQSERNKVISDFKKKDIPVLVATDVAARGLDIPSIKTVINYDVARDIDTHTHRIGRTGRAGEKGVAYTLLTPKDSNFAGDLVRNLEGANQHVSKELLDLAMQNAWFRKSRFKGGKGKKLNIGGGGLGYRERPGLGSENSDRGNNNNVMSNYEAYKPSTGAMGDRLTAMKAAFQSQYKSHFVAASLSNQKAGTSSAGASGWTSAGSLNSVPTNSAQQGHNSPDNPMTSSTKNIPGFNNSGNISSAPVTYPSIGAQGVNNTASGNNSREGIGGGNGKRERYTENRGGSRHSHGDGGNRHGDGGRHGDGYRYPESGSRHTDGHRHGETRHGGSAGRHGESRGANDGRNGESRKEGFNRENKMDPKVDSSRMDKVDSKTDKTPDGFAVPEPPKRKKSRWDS
UniProt Q8BHN5: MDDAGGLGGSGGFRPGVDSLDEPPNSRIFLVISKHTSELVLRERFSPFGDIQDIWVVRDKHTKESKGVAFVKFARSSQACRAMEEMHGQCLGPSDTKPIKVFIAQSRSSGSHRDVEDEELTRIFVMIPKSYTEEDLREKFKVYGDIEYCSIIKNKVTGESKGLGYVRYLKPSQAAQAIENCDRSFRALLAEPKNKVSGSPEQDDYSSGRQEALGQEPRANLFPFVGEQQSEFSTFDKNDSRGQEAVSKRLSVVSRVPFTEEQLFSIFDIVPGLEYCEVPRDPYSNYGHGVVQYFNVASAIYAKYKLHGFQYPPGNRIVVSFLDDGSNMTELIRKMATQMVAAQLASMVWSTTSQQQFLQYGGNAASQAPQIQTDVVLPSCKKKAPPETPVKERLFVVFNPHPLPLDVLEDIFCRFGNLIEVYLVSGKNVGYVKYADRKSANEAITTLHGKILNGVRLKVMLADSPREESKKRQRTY
UniProt Q80WC3: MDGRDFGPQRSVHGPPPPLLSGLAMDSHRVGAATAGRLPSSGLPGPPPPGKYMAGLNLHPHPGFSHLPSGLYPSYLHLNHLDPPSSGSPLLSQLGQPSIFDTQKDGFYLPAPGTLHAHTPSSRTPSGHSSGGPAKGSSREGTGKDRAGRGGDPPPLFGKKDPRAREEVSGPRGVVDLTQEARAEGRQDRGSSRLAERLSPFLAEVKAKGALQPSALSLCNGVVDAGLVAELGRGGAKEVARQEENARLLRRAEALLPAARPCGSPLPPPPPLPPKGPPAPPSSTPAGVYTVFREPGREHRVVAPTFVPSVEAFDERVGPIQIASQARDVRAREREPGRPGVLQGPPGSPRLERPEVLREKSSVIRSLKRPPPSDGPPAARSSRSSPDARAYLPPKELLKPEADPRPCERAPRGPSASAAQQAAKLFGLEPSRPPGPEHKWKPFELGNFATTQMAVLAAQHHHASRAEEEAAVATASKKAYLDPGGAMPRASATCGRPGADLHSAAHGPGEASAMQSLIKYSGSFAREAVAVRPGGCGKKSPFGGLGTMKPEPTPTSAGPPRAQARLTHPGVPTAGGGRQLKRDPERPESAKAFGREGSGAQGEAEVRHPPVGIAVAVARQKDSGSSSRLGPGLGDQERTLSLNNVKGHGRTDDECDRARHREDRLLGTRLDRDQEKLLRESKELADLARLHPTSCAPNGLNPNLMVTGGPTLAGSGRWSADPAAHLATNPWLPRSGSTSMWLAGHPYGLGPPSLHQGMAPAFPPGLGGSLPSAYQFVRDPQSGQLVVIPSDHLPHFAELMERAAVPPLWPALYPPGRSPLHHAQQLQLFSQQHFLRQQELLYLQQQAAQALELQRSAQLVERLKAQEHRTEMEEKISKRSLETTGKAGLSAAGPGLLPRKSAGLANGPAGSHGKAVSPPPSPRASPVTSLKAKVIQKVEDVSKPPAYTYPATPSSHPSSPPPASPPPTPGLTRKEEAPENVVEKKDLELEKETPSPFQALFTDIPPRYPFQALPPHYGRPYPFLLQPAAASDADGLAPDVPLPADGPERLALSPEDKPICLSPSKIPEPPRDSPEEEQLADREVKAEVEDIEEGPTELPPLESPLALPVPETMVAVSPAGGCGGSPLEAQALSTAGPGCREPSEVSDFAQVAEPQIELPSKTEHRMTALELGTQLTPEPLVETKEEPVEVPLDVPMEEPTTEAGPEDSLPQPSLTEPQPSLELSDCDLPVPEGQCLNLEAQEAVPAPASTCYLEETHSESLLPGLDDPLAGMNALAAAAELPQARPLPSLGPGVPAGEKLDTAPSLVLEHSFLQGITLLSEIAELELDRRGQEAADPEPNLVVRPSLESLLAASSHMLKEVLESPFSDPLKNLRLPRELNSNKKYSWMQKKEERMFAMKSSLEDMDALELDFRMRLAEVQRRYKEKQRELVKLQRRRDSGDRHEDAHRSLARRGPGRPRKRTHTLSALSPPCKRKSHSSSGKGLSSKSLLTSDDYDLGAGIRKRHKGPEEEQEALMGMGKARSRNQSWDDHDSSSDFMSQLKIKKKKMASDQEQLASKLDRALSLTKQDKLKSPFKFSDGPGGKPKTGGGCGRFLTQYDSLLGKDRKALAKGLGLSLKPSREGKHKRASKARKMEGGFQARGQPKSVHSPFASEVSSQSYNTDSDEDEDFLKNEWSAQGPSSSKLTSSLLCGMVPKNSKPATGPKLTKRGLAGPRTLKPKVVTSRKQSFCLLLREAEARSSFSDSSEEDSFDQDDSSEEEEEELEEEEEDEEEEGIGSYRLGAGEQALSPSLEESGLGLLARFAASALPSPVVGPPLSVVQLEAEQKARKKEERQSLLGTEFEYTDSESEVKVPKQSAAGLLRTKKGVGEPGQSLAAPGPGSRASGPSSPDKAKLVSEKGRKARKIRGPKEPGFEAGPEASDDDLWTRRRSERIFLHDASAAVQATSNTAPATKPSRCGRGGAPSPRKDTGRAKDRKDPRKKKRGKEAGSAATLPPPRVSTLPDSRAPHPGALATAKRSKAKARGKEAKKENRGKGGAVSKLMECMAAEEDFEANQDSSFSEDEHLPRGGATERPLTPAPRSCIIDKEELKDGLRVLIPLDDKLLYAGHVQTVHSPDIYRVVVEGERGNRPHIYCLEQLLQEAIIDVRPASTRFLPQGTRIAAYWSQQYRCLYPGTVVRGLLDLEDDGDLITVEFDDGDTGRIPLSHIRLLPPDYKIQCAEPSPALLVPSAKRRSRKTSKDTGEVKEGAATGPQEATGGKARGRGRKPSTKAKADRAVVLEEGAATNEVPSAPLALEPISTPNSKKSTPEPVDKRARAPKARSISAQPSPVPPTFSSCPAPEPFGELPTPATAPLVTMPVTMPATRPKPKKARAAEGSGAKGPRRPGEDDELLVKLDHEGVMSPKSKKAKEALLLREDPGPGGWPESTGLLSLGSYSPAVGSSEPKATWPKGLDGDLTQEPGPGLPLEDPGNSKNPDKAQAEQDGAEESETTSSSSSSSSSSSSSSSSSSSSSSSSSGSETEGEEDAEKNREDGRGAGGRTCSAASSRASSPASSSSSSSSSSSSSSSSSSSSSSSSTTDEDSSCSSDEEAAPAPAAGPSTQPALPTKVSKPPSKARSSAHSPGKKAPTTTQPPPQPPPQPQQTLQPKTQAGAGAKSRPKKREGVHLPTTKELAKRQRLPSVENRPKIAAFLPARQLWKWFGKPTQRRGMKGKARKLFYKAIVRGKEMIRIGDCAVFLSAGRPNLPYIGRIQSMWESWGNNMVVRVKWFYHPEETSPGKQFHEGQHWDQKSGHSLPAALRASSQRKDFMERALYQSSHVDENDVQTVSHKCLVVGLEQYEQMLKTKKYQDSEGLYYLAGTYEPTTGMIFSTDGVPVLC

The other results are listed elsewhere or left out. Most values lie at the level of the controls, where differences are scatter.

Compound in this assay: CN[C@@H]1C[C@H]2O[C@@](C)([C@@H]1OC)n1c3ccccc3c3c4c(c5c6ccccc6n2c5c31)C(=O)NC4 [staurosporine]
The experiment in a line: log2 fold change of tryptic peptide abundance, ligand vs vehicle (limited proteolysis) (log2 ratio); higher = more trypsin-susceptible (destabilized). To be noted: ligand concentration: 20 uM; sample: mouse liver crude lysate; replicate design: treated separately.
For the target “UniProt Q8BH95 (peptide sequence: AFAAGADIK, peptide start residue: 93)”, the log2 fold change was -0.477. Turning to “UniProt Q8BGL3 (peptide sequence: AKVIYLIR, peptide start residue: 114)”, the log2 fold change was 0.224. For “UniProt Q810A7 (peptide sequence: VSYLVFDEADR, peptide start residue: 401)” the value was -0.234. For “UniProt Q8BHN5 (peptide sequence: AMEEMHGQCLGPSDTKPIK, peptide start residue: 82)”, the log2 fold change came to 0.719. Regarding “UniProt Q80WC3 (peptide sequence: AEEEAAVATASKK, peptide start residue: 466)”, the log2 fold change was found to be 0.693.
